Experimental findings from article PMC8636562, “Mounting, structure and autocleavage of a type VI secretion-associated Rhs polymorphic toxin” (Nature Communications, 2021) are described below.

Results are given in words; binding and its absence hold for the method and conditions named. In cells and extracts the contact can be indirect. For some of these results: A result given as binding can be weak or reduced; the word gives no strength. Tags and fused reporters may be left off the sequences shown.

What all share (assay): pull-down; three proteins co-produced in E. coli BL21(DE3) (Strep-tagged EagR, FLAG-tagged Rhs1 and His6-tagged VgrG, or their truncated variants); cleared cell extract on Strep-Tactin resin, 1 h at 4 °C, buffer A (50 mM Tris-HCl pH 8.5, 250 mM NaCl, 1 mM TCEP), eluted with 2.5 mM desthiobiotin; Coomassie and immunoblot
In general terms: Immunoblotting shows a protein as a band on a membrane.

The target in assay [1] is T1, Photorhabdus laumondii EagR chaperone (Plu0354), C-terminally Strep-tagged (Photorhabdus laumondii (P. luminescens subsp. laumondii TTO1)) (UniProt Q7N9H9).
T1 sequence: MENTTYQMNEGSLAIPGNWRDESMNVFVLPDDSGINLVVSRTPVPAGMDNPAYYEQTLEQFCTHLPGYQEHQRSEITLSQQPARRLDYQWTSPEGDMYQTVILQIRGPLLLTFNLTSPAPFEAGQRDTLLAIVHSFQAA

Assay [2] has as its target Rhs1 C-terminal truncation: complete N-terminus prePAAR-PAAR-postPAAR, FLAG-tagged (Photorhabdus laumondii (P. luminescens subsp. laumondii TTO1)) (UniProt Q7N9I0).
The target in assay [3] is Rhs1 N-terminal truncation deleted of prePAAR, FLAG-tagged (Photorhabdus laumondii (P. luminescens subsp. laumondii TTO1)).
The target in assay [4] is Rhs1 N-terminal truncation deleted of prePAAR-PAAR, FLAG-tagged (Photorhabdus laumondii (P. luminescens subsp. laumondii TTO1)).

Turning to “Rhs1 C-terminal truncation: complete N-terminus prePAAR-PAAR-postPAAR, FLAG-tagged (from UniProt Q7N9I0) (domain or fragment)”, the binding result in assay [1] is reported as “binds”. Same read-out and setting: as for “Rhs1 N-terminal truncation deleted of prePAAR, FLAG-tagged (domain or fragment)”, the entry is “binds”; as for “Rhs1 N-terminal truncation deleted of prePAAR-PAAR, FLAG-tagged (domain or fragment)”, “binds”; as for “Rhs1 N-terminal truncation deleted of prePAAR-PAAR-postPAAR, FLAG-tagged (domain or fragment)”, “no binding”.

B1: Photorhabdus laumondii VgrG (Plu0355), N-terminally 6xHis-TEV-tagged (protein, UniProt Q7N9H8 1-631)
chain: MSFQKKTANAGNLAQQIADRLSPQSAGGLQFTLTAGGLPPHTFVVAGFTLHEALSTPFTLTVSLASADPAIDFAAVLDQSATLTILRAGKVERTVTGMVASFVQGNTGKHQTRYDMTIRPDMWRTTLRQNARIFQQQDIKTILTTLLKENGVRDVAFSLRNPHPEREFCVQYRETDFDFLQRLTAEEGIFYFFEFTGNKNTLVFADDAGSVVKGPVLPYHPDDAEQARQLCITRLTRQAQVRPAVVELKDYTFKNPAWAAEFRHQMREQDLQHTGYEHFDFPGRFKDEQHGADFTRYRLEALRNNALTGDGDSNAATMQPGVLFTLTGHPRPDLNRCWQLVGVTHHGSQPQALEQAAGESGTVMRNDFTFIADNQHWRPAPLPKPAMEGPQIAKVVGPAGEEIYCDAYGRIRLQFLWDRYGRSNDSSSCWIRVTQPWAGQGWGMLAIPRIGQEVVVDFLNGDPDQPIVTGRTYHASNLPPGALPGSKTQMTFRSKTHKGDGYNELRFEDAKGSEALALHAQRDMNTVVLNNRETRVMNDHTESIGHNQMLSVRNDRHKEVTGNEVSAITGLRQITVEKDSLLNVKNNIQIQARAGGIEIATAGGSITIDNAGNISIQGANITINGKQVNVN
Turning to B1, the binding entry is reported as “binds” in assay [2], “no binding” in assay [3] and “no binding” in assay [4].
